Experimental data from US20170276611A1, “CHALCOGENOPYRYLIUM DYES, COMPOSITIONS COMPRISING SAME, COMPOSITE NANOPARTICLES COMPRISING SAME, AND METHODS OF MAKING AND USING THE SAME” (The Research Foundation for The State University of New York, priority 2014, published 2017).
Some results were stated once for a whole list of compounds, not compound by compound.

Assay: UV/VIS-near-IR absorption of the dyes
Assay type: physicochemical
Experimental: Synthetic Methods. All reactions were performed open to air unless otherwise noted. Concentration in vacuo was performed on a rotary evaporator. NMR spectra were recorded at 300 or 500 MHz for ^1H and at 75.5 MHz for ^13C with residual solvent signal as internal standard. UV/VIS-near-IR spectra were recorded in quartz cuvettes with a 1-cm path length. Melting points were determined with a capillary melting point apparatus and are uncorrected. […] Pyranones 16b-16d are known compounds (J. Heterocycl. Chem. 1999, 36, 707-717). The synthesis of thiopyranone 16a and 4-methylpyrylium salt 15c is shown in Scheme 2. 4-Methylpyrylium salts 15a, 15d, and 15e have been reported previously in the literature (J. Org. Chem. 1982, 47, 5235-5239; Organometallics 1988, 7, 1131-1147; Dyes Pigm. 2000, 45, 1-7).

Structure (SMILES)	light absorption maxima [nm]
C(=Cc1cc(-c2ccc[se]2)[s+]c(-c2ccc[se]2)c1)C=C1C=C(c2ccc[se]2)SC(c2ccc[se]2)=C1.F[P-](F)(F)(F)(F)F [Dye 14, 4-(3-(2,6-di(selenophen-2-yl)-4H-thiopyran-4-ylidene)prop-1-en-1-yl)-2,6-di(selenophen-2-yl)thiopyrylium hexafluorophosphate]	> 800
C(=Cc1cc(-c2cccs2)[s+]c(-c2cccs2)c1)C=C1C=C(c2cccs2)SC(c2cccs2)=C1.F[P-](F)(F)(F)(F)F [Dye 13, 4-(3-(2,6-dithiophen-2-yl-4H-thiopyran-4-ylidene)prop-1-enyl)-(2,6-dithiophen-2-yl)thiopyrylium hexafluorophosphate]	> 800
